Measured values published in the M2OR odorant receptor database.
Numbering of substitutions follows the chain as printed. This is a selection; strong and weak results do not stand in their true shares. The calls were merged from several studies; some rest on single wells. This is one part of the list.

Chains of the proteins cited; added tags and fusions are not shown. A line that says so, or that is headed by a name, gives the form on record, which may keep a tag or linker.
OR8B4, as listed by the source: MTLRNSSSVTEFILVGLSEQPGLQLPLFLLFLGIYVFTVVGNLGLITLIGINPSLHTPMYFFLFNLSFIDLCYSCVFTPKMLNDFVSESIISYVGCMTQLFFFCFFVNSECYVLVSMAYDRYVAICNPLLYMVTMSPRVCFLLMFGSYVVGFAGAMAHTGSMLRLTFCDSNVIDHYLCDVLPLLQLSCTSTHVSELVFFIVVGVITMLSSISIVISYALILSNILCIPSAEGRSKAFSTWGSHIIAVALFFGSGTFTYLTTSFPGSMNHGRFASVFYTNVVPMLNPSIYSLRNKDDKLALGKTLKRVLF
OR8B3, as listed by the source: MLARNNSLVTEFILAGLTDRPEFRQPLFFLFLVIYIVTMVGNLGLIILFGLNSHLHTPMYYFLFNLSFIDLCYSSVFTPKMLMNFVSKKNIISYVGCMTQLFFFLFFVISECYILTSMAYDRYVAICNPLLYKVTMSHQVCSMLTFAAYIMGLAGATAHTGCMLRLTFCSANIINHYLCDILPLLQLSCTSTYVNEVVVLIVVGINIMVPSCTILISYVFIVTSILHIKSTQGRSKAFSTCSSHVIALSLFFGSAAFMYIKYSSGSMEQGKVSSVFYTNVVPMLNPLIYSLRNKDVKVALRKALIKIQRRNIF

What was measured:
Conditions in all cases: stereoisomer not certain
OR8A1 = system: T1, OR8A1
T1 sequence (whole entry): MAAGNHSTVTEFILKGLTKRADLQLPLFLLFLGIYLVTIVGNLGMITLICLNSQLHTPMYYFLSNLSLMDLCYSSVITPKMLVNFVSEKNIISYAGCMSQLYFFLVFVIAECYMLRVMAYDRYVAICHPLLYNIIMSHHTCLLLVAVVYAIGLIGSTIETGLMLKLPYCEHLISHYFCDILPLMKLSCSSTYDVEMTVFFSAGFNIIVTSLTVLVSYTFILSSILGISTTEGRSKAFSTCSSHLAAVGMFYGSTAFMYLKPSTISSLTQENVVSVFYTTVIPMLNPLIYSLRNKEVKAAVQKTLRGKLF
Outline: (§1)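 Whether a receptor–molecule pair is responsive (active) rests on the original authors' judgment that its measured signal was statistically different from baseline. Pairs without that judgment are non-responsive (inactive). Sources used varied assay methods, commonly transient luciferase assays in mammalian cell lines.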

OR8B12 (Homo sapiens) = biological target: T2, OR8B12 (Homo sapiens) (UniProt Q8NGG6)
T2 sequence (whole entry): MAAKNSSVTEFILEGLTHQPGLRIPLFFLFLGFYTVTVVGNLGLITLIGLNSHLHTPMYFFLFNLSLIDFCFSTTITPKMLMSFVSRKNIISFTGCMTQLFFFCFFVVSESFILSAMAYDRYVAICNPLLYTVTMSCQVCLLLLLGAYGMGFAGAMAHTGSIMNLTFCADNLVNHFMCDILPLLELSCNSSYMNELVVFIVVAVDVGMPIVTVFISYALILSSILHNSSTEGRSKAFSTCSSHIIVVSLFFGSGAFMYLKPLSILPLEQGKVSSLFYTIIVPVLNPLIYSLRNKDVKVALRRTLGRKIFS
Outline: as §1

OR8B2 (Homo sapiens) = biological target: T3, OR8B2 (Homo sapiens) (UniProt Q96RD0)
T3 sequence (whole entry): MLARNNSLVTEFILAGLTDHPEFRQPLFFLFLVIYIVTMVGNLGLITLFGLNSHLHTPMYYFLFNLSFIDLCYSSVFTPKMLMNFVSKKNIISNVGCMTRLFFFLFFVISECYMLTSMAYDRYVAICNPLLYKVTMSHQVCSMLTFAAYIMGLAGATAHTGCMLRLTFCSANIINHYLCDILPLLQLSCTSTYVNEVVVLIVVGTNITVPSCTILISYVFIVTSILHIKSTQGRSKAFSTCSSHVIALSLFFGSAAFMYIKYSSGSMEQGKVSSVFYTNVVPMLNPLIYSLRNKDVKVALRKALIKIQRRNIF
Outline: as §1

OR8B3 = system: T4, OR8B3
T4 sequence (whole entry): T3 sequence (whole entry) with H20R, T47I, N94Y, R100Q, M114I, T205I, T208M
Outline: as §1

OR8B4 [1] = system: T5, OR8B4
T5 sequence (whole entry): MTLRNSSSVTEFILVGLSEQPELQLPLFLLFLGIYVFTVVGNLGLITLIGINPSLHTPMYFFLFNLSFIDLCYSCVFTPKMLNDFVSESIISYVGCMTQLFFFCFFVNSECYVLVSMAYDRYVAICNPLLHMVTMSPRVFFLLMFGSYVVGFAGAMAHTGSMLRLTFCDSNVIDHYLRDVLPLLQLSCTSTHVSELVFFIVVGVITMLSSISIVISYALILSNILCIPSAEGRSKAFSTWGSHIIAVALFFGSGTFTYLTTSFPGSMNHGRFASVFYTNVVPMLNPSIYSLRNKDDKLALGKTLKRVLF
Outline: as §1

OR8B4 [2] = system: T6, OR8B4; remark: listed apart in the source
T6 sequence (whole entry): T5 sequence (whole entry) with E22G, H131Y, F140C, R178C
Outline: as §1

OR8B8 (Homo sapiens) = biological target: T7, OR8B8 (Homo sapiens) (UniProt Q15620)
T7 sequence (whole entry): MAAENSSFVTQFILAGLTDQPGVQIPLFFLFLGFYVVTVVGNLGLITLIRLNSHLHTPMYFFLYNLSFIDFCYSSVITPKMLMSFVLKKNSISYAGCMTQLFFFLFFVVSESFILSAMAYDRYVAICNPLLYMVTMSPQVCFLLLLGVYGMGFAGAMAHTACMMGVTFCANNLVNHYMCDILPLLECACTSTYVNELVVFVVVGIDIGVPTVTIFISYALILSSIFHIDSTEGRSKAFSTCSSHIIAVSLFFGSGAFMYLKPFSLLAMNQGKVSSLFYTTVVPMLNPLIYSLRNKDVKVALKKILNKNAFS
Outline: as §1

OR8B8 = system: T8, OR8B8
T8 sequence (whole entry): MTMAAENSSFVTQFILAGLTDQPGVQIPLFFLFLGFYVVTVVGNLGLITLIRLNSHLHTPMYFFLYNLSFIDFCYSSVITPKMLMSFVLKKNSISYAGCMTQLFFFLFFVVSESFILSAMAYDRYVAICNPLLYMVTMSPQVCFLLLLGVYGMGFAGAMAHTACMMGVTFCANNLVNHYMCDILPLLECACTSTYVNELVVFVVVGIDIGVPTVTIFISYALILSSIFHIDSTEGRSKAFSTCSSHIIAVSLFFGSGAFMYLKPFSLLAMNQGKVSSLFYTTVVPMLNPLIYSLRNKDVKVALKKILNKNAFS
Outline: as §1

OR8D1 (Homo sapiens) = biological target: T9, OR8D1 (Homo sapiens) (UniProt Q8WZ84)
T9 sequence (whole entry): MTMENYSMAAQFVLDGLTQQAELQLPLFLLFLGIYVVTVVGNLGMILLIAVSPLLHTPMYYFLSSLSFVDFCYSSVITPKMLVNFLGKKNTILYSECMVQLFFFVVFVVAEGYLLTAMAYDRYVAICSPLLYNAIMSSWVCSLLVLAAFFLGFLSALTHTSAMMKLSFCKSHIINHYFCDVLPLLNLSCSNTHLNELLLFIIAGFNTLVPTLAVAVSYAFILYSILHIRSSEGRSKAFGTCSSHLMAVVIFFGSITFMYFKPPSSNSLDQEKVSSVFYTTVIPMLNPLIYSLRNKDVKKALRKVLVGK
Outline: as §1

OR8D2 (Homo sapiens) = biological target: T10, OR8D2 (Homo sapiens) (UniProt Q9GZM6)
T10 sequence (whole entry): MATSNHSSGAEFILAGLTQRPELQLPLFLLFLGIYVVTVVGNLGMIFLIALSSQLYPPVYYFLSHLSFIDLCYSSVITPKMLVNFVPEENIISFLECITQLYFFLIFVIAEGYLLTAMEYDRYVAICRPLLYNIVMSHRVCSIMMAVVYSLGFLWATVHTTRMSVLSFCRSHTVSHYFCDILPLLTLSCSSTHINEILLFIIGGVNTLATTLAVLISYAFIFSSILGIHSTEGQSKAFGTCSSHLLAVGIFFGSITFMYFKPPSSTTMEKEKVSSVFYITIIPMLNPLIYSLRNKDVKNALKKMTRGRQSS
Outline: as §1

OR8D4 = system: T11, OR8D4
T11 sequence (whole entry): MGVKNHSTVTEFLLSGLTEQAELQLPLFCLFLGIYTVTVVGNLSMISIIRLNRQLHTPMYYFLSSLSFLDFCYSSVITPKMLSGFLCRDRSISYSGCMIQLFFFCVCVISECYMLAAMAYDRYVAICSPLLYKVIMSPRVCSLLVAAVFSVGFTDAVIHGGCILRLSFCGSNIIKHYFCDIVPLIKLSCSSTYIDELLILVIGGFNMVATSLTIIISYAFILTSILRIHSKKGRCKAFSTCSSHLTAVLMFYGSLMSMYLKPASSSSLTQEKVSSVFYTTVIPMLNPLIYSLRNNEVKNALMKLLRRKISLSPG
Outline: as §1

OR8G1 (Homo sapiens) = biological target: T12, OR8G1 (Homo sapiens) (UniProt Q15617)
T12 sequence (whole entry): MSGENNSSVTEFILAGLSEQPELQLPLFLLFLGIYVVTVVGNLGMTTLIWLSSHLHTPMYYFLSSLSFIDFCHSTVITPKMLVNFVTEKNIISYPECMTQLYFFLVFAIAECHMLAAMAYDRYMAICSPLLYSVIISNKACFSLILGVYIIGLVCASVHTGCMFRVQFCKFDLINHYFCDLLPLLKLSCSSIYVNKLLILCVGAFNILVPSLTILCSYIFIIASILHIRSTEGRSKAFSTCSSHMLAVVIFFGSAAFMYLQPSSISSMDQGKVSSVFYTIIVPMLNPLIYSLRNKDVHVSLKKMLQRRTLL
Outline: as §1

OR8G5 (Homo sapiens) = biological target: T13, OR8G5 (Homo sapiens) (UniProt Q8NG78)
T13 sequence (whole entry): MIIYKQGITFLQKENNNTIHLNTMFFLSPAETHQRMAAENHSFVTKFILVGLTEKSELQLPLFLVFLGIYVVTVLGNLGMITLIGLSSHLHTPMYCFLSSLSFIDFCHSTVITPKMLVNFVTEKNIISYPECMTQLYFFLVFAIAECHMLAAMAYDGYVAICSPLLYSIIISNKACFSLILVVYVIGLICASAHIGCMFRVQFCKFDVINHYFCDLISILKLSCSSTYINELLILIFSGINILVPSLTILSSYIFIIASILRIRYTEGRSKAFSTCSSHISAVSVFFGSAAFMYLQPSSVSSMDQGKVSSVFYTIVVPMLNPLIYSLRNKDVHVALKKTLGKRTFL
Outline: as §1

OR8G5 = system: T14, OR8G5
T14 sequence (whole entry): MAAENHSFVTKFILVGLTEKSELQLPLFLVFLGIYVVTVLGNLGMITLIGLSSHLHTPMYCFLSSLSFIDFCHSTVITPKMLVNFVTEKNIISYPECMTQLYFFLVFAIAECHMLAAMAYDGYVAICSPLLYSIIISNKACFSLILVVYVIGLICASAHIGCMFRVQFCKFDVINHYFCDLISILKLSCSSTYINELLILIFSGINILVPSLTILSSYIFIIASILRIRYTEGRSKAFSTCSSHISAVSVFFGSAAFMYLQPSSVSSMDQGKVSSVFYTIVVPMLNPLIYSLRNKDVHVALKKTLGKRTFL
Outline: as §1

OR8H1 (Homo sapiens) = biological target: T15, OR8H1 (Homo sapiens) (UniProt Q8NGG4)
T15 sequence (whole entry): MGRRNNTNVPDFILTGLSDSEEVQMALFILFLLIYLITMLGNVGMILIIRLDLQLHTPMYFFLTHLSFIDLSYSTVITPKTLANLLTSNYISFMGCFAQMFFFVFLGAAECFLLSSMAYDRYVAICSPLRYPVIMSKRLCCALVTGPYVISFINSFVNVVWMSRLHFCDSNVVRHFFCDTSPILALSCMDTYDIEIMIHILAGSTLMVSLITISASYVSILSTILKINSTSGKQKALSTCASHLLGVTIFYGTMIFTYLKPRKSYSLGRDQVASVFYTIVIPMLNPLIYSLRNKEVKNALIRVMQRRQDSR
Outline: as §1

OR8H2 = system: T16, OR8H2
T16 sequence (whole entry): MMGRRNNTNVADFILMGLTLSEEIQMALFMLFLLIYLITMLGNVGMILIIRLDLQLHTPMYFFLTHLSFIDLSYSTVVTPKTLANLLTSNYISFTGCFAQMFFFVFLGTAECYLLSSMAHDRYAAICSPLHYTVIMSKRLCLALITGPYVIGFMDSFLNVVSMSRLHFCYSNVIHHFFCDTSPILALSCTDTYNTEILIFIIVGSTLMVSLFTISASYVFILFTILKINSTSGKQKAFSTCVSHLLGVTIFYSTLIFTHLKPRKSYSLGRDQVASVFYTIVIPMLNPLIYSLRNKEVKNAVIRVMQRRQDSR
Outline: as §1

Measured: odorant receptor agonist call;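 further: active if original authors judged signal statistically different from baseline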

c1cnccn1
inactive: OR8A1 | OR8B12 (Homo sapiens) | OR8B2 (Homo sapiens) | OR8B3 | OR8B4 [1] | OR8B4 [2] | OR8B8 (Homo sapiens) | OR8B8 | OR8D1 (Homo sapiens) | OR8D2 (Homo sapiens) | OR8D4 | OR8G1 (Homo sapiens) | OR8G5 (Homo sapiens) | OR8G5 | OR8H1 (Homo sapiens) | OR8H2

CC12C=CCC1C1CCC3=CC(=O)CCC3(C)C1CC2 (stereo unspecified)
inactive: OR8A1 | OR8B12 (Homo sapiens) | OR8B2 (Homo sapiens) | OR8B3 | OR8B4 [1] | OR8B4 [2] | OR8B8 (Homo sapiens) | OR8B8 | OR8D1 (Homo sapiens) | OR8D2 (Homo sapiens) | OR8D4 | OR8G1 (Homo sapiens) | OR8G5 (Homo sapiens) | OR8G5 | OR8H1 (Homo sapiens) | OR8H2

CC1=NC(C)SC1C (stereo unspecified)
inactive: OR8A1 | OR8B4 [1] | OR8B4 [2] | OR8B8 (Homo sapiens) | OR8B8 | OR8D1 (Homo sapiens) | OR8D2 (Homo sapiens) | OR8D4 | OR8G1 (Homo sapiens) | OR8G5 (Homo sapiens) | OR8G5 | OR8H1 (Homo sapiens) | OR8H2

CCCC(=O)O
inactive: OR8A1 | OR8B12 (Homo sapiens) | OR8B2 (Homo sapiens) | OR8B3 | OR8B4 [1] | OR8B4 [2] | OR8B8 (Homo sapiens) | OR8B8 | OR8D1 (Homo sapiens) | OR8D2 (Homo sapiens) | OR8D4 | OR8G1 (Homo sapiens) | OR8G5 (Homo sapiens) | OR8G5 | OR8H1 (Homo sapiens) | OR8H2
